Laboratory results reported in patent publication US7563585B2, “Methods of assaying compounds that modulate IL-4 receptor-mediated IgE synthesis utilizing a thioredoxin-like 32 kDa protein (TXNL)” (Rigel Pharmaceuticals, Inc., priority 2002, dated 2009).
Some entries share one result that the patent states for a list of compounds.

System: IL-4 induced germline ε transcription (ε promoter reporter in A5T4 cells)
Assay: Re-infection assay in naïve A5T4 cells (BFP− vs BFP+ populations, FACS of GFP)
Type: cell-based, human
Settings: A5T4 reporter line
Description: The ability of peptide DR15wt (SEQ ID NO:1) to inhibit germline ε transcription was confirmed in naïve cells. Briefly, Phoenix cells were transfected with a retroviral vector encoding a BFP-DR15wt (SEQ ID NO:1) peptide fusion as described in WO 99/58663 and WO 97/27213. Naïve A5T4 cells were infected with the resultant virions and grown for 3 days. The infected cells were stimulated with IL-4 (60 U/mL) and, after 3 days, the cells were assessed by FACS for BFP and GFP. […] The BFP fluorescence data corresponding to the BFP^+ and BFP^− populations are provided in Panel A. The GFP fluorescence data corresponding to the BFP^+ and BFP^− populations are presented in Panel B. The reporter ratio for this purpose is determined as the geometric mean of the GFP fluorescence of the BFP^− population divided by the geometric mean of the GFP fluorescence of the BFP^+ population. The reporter ratio for the DR15 in this re-infection assay was 1.69.
A collection of DR15 mutants was generated by replacing double amino acid residues in the sequence of DR15wt (SEQ ID NO:1) with a different amino acid, typically an alanine, as described in copending application Ser. No. 10/095,659. The functional profiles for the mutants derived from DR15wt (SEQ ID NO:1) was obtained by constructing and screening for activity in the A5T4 reporter cell line in the manner described above. […]

| Sequence | functional category based on reporter ratio compared to DR15wt |
| --- | --- |
| PERCAARMPPQSLADAQIYS (peptide generated from combinatorial library) [DR15YM, dual alanine mutant of DR15wt] | ROF (a reduction of function (ROF) mutant shows a >50% decrease in reporter ratio) |
| PERCYMRMPPQSLADAAAYS (peptide generated from combinatorial library) [DR15QI, dual alanine mutant of DR15wt] | ROF (a reduction of function (ROF) mutant shows a >50% decrease in reporter ratio) |
